Test results from PubChem BioAssay AID1487 (National Center for Advancing Translational Sciences (NCATS), 2009).
The list shows a part of the results. Further columns of the screen follow, without active or inactive calls. The list favours compounds with an active or inconclusive main result. Potencies come from curve fits of mixed quality, noted in brackets.

Experiment: qHTS Assay for Modulators of Lamin A Splicing
Details: HeLa LMNA splicing GFP/RFP minigene ratio, 48 h
Summary of the method: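 S3 HeLa cells stably expressing lamin A-EGFP splicing minigene plus DsRed2, 600 cells/well, 48 h compound exposure at 37C. Laser-scanning cytometry; analysed as GFP (500-530 nm)/RFP (575-640 nm) total intensity ratio; 0.5% DMSO vehicle.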

[1] = measured here: GFP splicing reporter channel
[2] = measured here: RFP viability control channel

Row | SMILES | AC50 [1] | AC50 [2]
1 | COc1cc(O)oc1C=Nc1ccc(C(F)(F)F)cc1 | 5.01 µM [falling, partial curve] | –
2 | Cc1ccc(Nc2nc(NCCCN3CCOCC3)nc(N)c2[N+](=O)[O-])cc1 | 15.8 µM [rising, single point] | 15.8 µM [rising, partial curve, poor fit]
3 | CC(=O)c1nc2ccccc2n1CCc1ccccc1 | 3.98 µM [falling, full curve, poor fit] | –
4 | CC[N+](CC)(CC)CC(=O)Nc1ccc(SC(F)F)cc1 | – | 1.26 µM [falling, full curve, poor fit]
5 | CN(C)c1ccc(/C=C/C(=O)c2ccccc2)cc1[N+](=O)[O-] | 35.5 µM [falling, single point] | 35.5 µM [falling, single point]
6 | Cc1ccc(C(=O)NCC(c2cccs2)S(=O)(=O)c2ccccc2)cc1C (stereo unspecified) | – | 35.5 µM [falling, partial curve, poor fit]
7 | CCCCC(CC)CNC(=O)CCCCn1c(=O)[nH]c2ccsc2c1=O (stereo unspecified) | 2.24 µM [falling, full curve] | –
8 | CN(C)S(=O)(=O)Oc1ccccc1C(=O)Nc1ccc(F)cc1F | 0.01 µM [falling, single point] | –
9 | CCC(C)(C)C1CCC(=NNC(=S)Nc2cccnc2)CC1 (stereo unspecified) | 35.5 µM [rising, single point] | 31.6 µM [rising, single point]
10 | Cc1ccccc1Nc1nc(NCc2ccco2)c2ccccc2n1 | – | 0.891 µM [falling, full curve]
11 | CNC(=S)N/N=C/c1cn(Cc2ccc(F)cc2)c2ccccc12 | – | 15.8 µM [rising, partial curve, poor fit]
12 | CCOc1ccccc1N(CC(=O)N/N=C/c1cc(Br)ccc1OC)S(C)(=O)=O | 14.1 µM [rising, single point] | –
13 | O=C(Cc1nc(=O)c2ccccc2s1)Nc1ccccc1 | 10 µM [falling, single point] | 10 µM [falling, partial curve]
14 | COc1cc(C2=NOC(C(=O)Nc3ccc(C)cc3)C2)cc(OC)c1OC (stereo unspecified) | 12.6 µM [rising, single point] | 14.1 µM [rising, single point]
15 | Cc1ccc(S(=O)(=O)N(C)C)cc1NC(=O)c1ccccc1Br | – | 12.6 µM [rising, single point]
16 | COc1ccc(NS(=O)(=O)c2cccc(NC(=O)C34CCC(CC3)C4)c2)cc1 | – | 10 µM [rising, partial curve]
17 | Clc1ccccc1COc1ccc(/C=N/n2cnnc2)cc1 | 12.6 µM [rising, single point] | 25.1 µM [rising, single point]
18 | Cc1ccc(S(=O)(=O)Nc2cc(-c3nn(C)c(=O)c4ccccc34)ccc2N2CCOCC2)cc1 | – | 12.6 µM [rising, partial curve, poor fit]
19 | Nc1ccc(SC(F)(F)F)cc1C(=O)c1ccccc1 | 0.112 µM [falling, full curve, poor fit] | 0.126 µM [falling, full curve, poor fit]
20 | O=C1NC2=C(CCc3ccccc32)C(c2ccccc2)N1 (stereo unspecified) | 4.47 µM [rising, single point] | 35.5 µM [rising, single point]
21 | CCC(Oc1ccccc1)C(=O)Nc1cc(-c2ccccc2F)nn1-c1ccccc1 (stereo unspecified) | 0.447 µM [rising, partial curve, poor fit] | –
22 | Cc1sc2nc(SCC(=O)Nc3c(C)n(C)n(-c4ccccc4)c3=O)n(C)c(=O)c2c1C | – | 10 µM [rising, partial curve, poor fit]
23 | O=C(COc1cccc(F)c1)N[C@@H](Cc1ccccc1)c1nc2ccccc2[nH]1 | – | 15.8 µM [rising, single point]
24 | Cc1ccc(-n2nnnc2Sc2nc([N+](=O)[O-])nn2C)cc1C | 20 µM [falling, single point] | 35.5 µM [falling, single point]
25 | COc1ccc2c(c1)O[C@@H](c1ccc3c(c1)OCO3)[C@H](OC(=O)Nc1cc(OC)c(OC)c(OC)c1)C2=O | 35.5 µM [rising, single point] | 35.5 µM [rising, single point]
26 | CCN(CC)S(=O)(=O)c1ccc(Cc2ncc(C(F)(F)F)cc2Cl)s1 | – | 20 µM [rising, single point]
27 | Cc1cccc(/C=N/n2c(-c3ccncc3)n[nH]c2=S)c1 | 14.1 µM [rising, single point] | 35.5 µM [rising, single point]

Row | SMILES | AC50 [1] | AC50 [2]
28 | Cc1ccc(C)c(N(C)S(=O)(=O)c2ccc3[nH]cc(C(=O)NCCN4CCOCC4)c(=O)c3c2)c1 | – | 7.08 µM [rising, partial curve, poor fit]
29 | COc1cc(NC(=O)C(CC(C)C)N2Cc3ccccc3C2=O)cc(OC)c1 (stereo unspecified) | 0.794 µM [falling, full curve, poor fit] | –
30 | COc1ccc(NS(=O)(=O)c2cc(NC(=O)c3ccncc3)ccc2N2CCOCC2)cc1 | – | 10 µM [falling, partial curve]
31 | COc1ccccc1NS(=O)(=O)c1cc(NC(=S)Nc2cc(C)cc(C)c2)ccc1Cl | 20 µM [rising, single point] | 17.8 µM [rising, partial curve]
32 | Cc1ccc(NC(=O)Cn2c(=O)nc(-c3ccccc3)c3ccccc32)cc1 | 35.5 µM [falling, single point] | 35.5 µM [falling, single point]
33 | CCCOc1cccc(-c2cc(C(=O)NN)c3ccccc3n2)c1 | 10 µM [rising, partial curve, poor fit] | 12.6 µM [rising, single point]
34 | O=c1c(CCc2ccccc2)nc2cncnc2n1Cc1ccccc1Cl | 3.55 µM [falling, partial curve] | –
35 | CCOc1cccc(CNC(=O)c2ccc(N3CCCC3)c(NC(=O)Nc3ccccc3CC)c2)c1 | 35.5 µM [falling, single point] | 35.5 µM [falling, single point]
36 | C/C(=N\NC(=S)Nc1ccc(C)c(C)c1)c1ccc(N2CCOCC2)cc1 | – | 11.2 µM [rising, partial curve]
37 | CNc1ccc(S(=O)(=O)NCC(=O)OCC(=O)Nc2cccc(Cl)c2Cl)cc1[N+](=O)[O-] | 14.1 µM [rising, partial curve, poor fit] | 17.8 µM [rising, single point]
38 | CCCCOc1ccc(CNC(=O)CN2C(=O)CCn3nc(-c4cn(C)c5ccccc45)cc32)cc1 | 0.0112 µM [falling, full curve, poor fit] | 0.00794 µM [falling, full curve, poor fit]
39 | CCOc1cc(/C=N/NC(=O)c2cc(C)n(-c3ccc(F)cc3)c2C)ccc1O | – | 35.5 µM [falling, single point]
40 | Cc1c(C(=O)NCc2cccnc2)oc2ccc(S(=O)(=O)N3CCCCCC3)cc12 | – | 11.2 µM [rising, single point]
41 | CCOC(=O)O[C@@H](C)OC(=O)[C@@H]1N2C(=O)[C@@H](NC(=O)[C@@H](N)c3ccccc3)[C@H]2SC1(C)C | 0.00447 µM [falling, full curve] | 0.00398 µM [falling, full curve, poor fit]
42 | Nc1nc(Nc2cccc(Cl)c2)sc1C(=O)c1ccc(F)cc1 | – | 7.08 µM [falling, partial curve, poor fit]
43 | Cc1ccc(S(=O)(=O)Cn2nnnc2CN2CCN(Cc3ccc4c(c3)OCO4)CC2)cc1 | 1.41 µM [rising, partial curve] | 7.94 µM [rising, partial curve, poor fit]
44 | O=c1[nH]c2sc3c(c2c(=O)n1Cc1ccccc1)CCC3 | – | 25.1 µM [rising, single point]
45 | CS(=O)(=O)Nc1ccc(-c2nc3ccccc3s2)cc1 | 2.82 µM [rising, partial curve] | –
46 | COc1cccc(NC(=S)N(CCc2c(C)[nH]c3ccccc23)Cc2cccs2)c1 | 12.6 µM [rising, single point] | 22.4 µM [rising, single point]
47 | CC1C(O)=C(c2nc3ccccc3[nH]2)C(=N)N1c1ccccc1 (stereo unspecified) | – | 20 µM [rising, single point]
48 | CCCCn1c(NCc2ccc3c(c2)OCO3)nc2ccccc21 | – | 12.6 µM [rising, single point]
49 | Oc1ccc(N=Nc2n[nH]c(-c3ccc(Br)cc3)n2)cc1 | 25.1 µM [falling, partial curve] | 12.6 µM [falling, partial curve]
50 | Cc1c(C(=O)NCCSCc2ccc(Cl)cc2Cl)cccc1[N+](=O)[O-] | 20 µM [falling, single point] | 22.4 µM [falling, partial curve, poor fit]
51 | O=C(CSCc1nc2ccccc2[nH]1)N1CCN(c2cccc(Cl)c2)CC1 | – | 11.2 µM [rising, partial curve]
52 | O=C(NCc1ccco1)c1ccc2c(=O)n(-c3ccccc3)c(=O)n(Cc3cccc(F)c3)c2c1 | – | 0.0794 µM [falling, full curve, poor fit]
53 | O=C(Nc1ccc(OCC(F)(F)C(F)F)c(C(F)(F)F)c1)c1ccccc1O | 35.5 µM [falling, single point] | 12.6 µM [falling, single point]

Grouped by structure: the compounds so far containing bromine.
Row | SMILES | AC50 [1] | AC50 [2]
12 | CCOc1ccccc1N(CC(=O)N/N=C/c1cc(Br)ccc1OC)S(C)(=O)=O | 14.1 µM [rising, single point] | –
15 | Cc1ccc(S(=O)(=O)N(C)C)cc1NC(=O)c1ccccc1Br | – | 12.6 µM [rising, single point]
49 | Oc1ccc(N=Nc2n[nH]c(-c3ccc(Br)cc3)n2)cc1 | 25.1 µM [falling, partial curve] | 12.6 µM [falling, partial curve]
